Experimental data taken from PubChem BioAssay AID1508600 (Functional Genomics Laboratory (NCATS/FGL), 2020).
Screen size: about 53,000 sequences; about 3,700 (7%) were called active.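 The calls were made as follows: active = gene knockdowns whose robust z-score for IL-1 alpha signal is at least 2 or at most -2, so actives lie on both sides; inactive = the rest.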 This is one part of the list.

assay: Components of the Cytosolic LPS Sensing Pathway: Gene Identification via Genome-wide siRNA Screen; conditions: RAW264.7 macrophages, IL-1a HTRF, actives lie on both sides, screened at 100 nM (by protocol), cells primed 5 h with Pam3CSK4 first;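 also: robust z of the log signal after scaling to non-targeting control siRNA wells of the plate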
Procedure, shortened: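 Mouse macrophage line RAW264.7 is transfected with siRNA (100 nM final), grown 48h, primed with TLR ligand Pam3CSK4 5 h and given intracellular LipidA 24 h. IL-1a in supernatant is read by HTRF and viability by luminescence.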

z-score, inactive:
GGACAUUGAUGUCAUAGAATT against Endod1 -0.511
GGAAUUCUCCUUCCUCACUTT against Cyp21a1 -0.429
GGGAAUCACAAGAGAAACATT against 1700052K11Rik 0.0375
GGAUAAACAGCUGAAGGUGTT against Ccs 0.762
GGUCCCAUCUUUGCUUUGATT against Tbl1x 0.225
GGAACAUGUCUUCAAGAGATT against Stac2 -0.523
GGUGCUUGAUUUUGUGCAGTT against Psmd13 -0.00516
GGCUUUCUGGAAGAUACUUTT against Hrh4 -0.47
GGCCCAAGUGACUAAGAACTT against Tgm1 -1.61
GGAAGGAGAGGAAAUUAAATT against Nrg3 -1.95
AGACAGAUUCCAGUCCUGGTT against 4930451I11Rik -0.479
GCCCAGAAUCAACUCCUACTT against Wwp2 -0.423
GCUAAAGUGACCUUAAAACTT against Phactr4 -0.382
GGCUAUGGAUGUCUCCAAUTT against Gstm4 1.17
GCUAGAGGAUGGCUGAGCUTT against Poll -0.581
GGAUCUAGAUGAGAAUGAATT against Fip1l1 -1.36
CCGUCAUGCUGAUUGCCUUTT against Gpr119 -0.538
GCCUAUUAUAUUUAGACAGTT against Col4a6 0.611
GUUGAGUGGCUGUGAUAUATT against Nms -0.00159
GGAGGAAUAUGACACAGUGTT against Wars2 0.138
GAAAGCAUUUAAUGCCCAATT against Vmn1r78 1.3
GGGACCAAGCAGGUAAAAATT against Kif3a -0.0378
GGAAUUAAAGAGGAAACAATT against Zfp354b 1.33
GGAAGUGUCUGCCAGAGAUTT against Lysmd2 -1.75
CCCAAACAUAGCUGAAUAATT against Muc1 0.413
GGUCAAUAUCCUCGGACAUTT against Hsd17b13 -0.386
GCCCUGUCGUUUAUUGUGGTT against Cacng4 0.225

2 records picked at random from the list so far, as already listed:
z-score, inactive:
GGAAGGAGAGGAAAUUAAATT against Nrg3 -1.95
GGCUUUCUGGAAGAUACUUTT against Hrh4 -0.47

Following part:

z-score, active:
GGAUGCAGUACGAAAUUCUTT against Psmd1 -2.93
GGUGCUAAGAAAAUCAAAGTT against Ryr2 3.64
